For 17 compounds, cell number change and AC50 results are on record in PubChem BioAssay AID2685 (National Center for Advancing Translational Sciences (NCATS), 2010).

Some of the results follow. Shown are side measurements of this screen, not its main read-out; they come without a call. The list favours compounds with an active or inconclusive main result. The note in brackets gives the kind of curve behind each potency; many fits are weak.

The nature of the assay: qHTS Assay for Lipid Storage Modulators in Drosophila S3 Cells.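 On cell number change: cells counted by Cell Tracker Red CMTPX staining in the red channel.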 As to conditions: BODIPY lipid droplet fluorescence, 18-24 h; for cell number change: measured here: cell count max response, cells fed with added oleic acid. Put shortly: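 Laser-scanning cytometry quantifies lipid droplet accumulation (500–530 nm total intensity; droplet/cell object ratio) in oleic acid-fed (400 uM added) Drosophila S3 cells treated with a concentration series. 20 uM Triacsin C defined 100% inhibition.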

The mark [1] stands for this setting: measured here: lipid fluorescence (Fed channel) AC50, cells fed with added oleic acid.
Setting [2] is: measured here: cell number channel AC50, cells fed with added oleic acid.

Turning to `Cc1ccnc(N/C=C(/NC(=O)c2ccccc2)C(=O)N/N=C\c2ccc(Cl)cc2)n1`, the cell number change was found to be 16.5%. In addition, the half-maximal activity concentration (AC50) under setting [1] was 18.4 µM [rising, partial curve].
`CCCc1cc(=O)[nH]c(SCc2cc(=O)oc3cc(C)c(C(C)C)cc23)n1`: the cell number change amounted to 34%. Further, the AC50 under setting [2] is 16.4 µM [rising, single point]. Further, under setting [1], the half-maximal activity concentration (AC50) is 29.1 µM [rising, single point].
Take `Cc1ccc(-c2nc(CSCC(=O)NCC3CCCO3)c(C)o2)cc1` (configuration not stated): the cell number change was determined as 61.3%. Moreover, the half-maximal activity concentration (AC50) under setting [2] was 16.4 µM [rising, single point].
With `O=C1C=C(O)C(n2cncn2)C(c2cc(F)ccc2F)C1` (configuration not stated), the cell number change is -30%. The half-maximal activity concentration (AC50) under setting [1] was 35.5 µM [falling, single point].
Take `CCOc1ccc(CCNC(=O)C2CCN(c3nn4c(=O)cc(C)nc4s3)CC2)cc1`: the cell number change is -0.0075%. Moreover, the concentration at half-maximal activity (AC50) under setting [1] is 1.16 µM [falling, single point].
Turning to `Brc1ccc(/C=N/Nc2ccccc2)cc1`, the cell number change turned out to be 20.9%.
Consider `O=C(COc1ccc(Br)cc1Cl)NC(=S)N1CCc2ccccc21`, for which the cell number change was found to be 15.3%. For the same compound, the concentration at half-maximal activity (AC50) under setting [1] is 2.06 µM [rising, partial curve].
For the compound `CCC(=O)c1ccc(OCC(=O)OCC(=O)N2CCCc3ccccc32)cc1`, the cell number change was determined as 5.66%. Also, under setting [1], the AC50 is 2.06 µM [rising, partial curve].
For `COc1ccccc1NC(=O)c1ccc(NC(=O)COC(=O)CC(NC(=O)c2ccccc2Cl)c2ccccc2)cc1` (configuration not stated), the cell number change was determined as 12.9%. In addition, the concentration at half-maximal activity (AC50) under setting [1] was 0.103 µM [rising, partial curve].
With `CCCCn1c(=O)[nH]c(=O)c2c(C(=O)OCC)cc(-c3ccc(OC(F)F)cc3)nc21`, the cell number change is 138%.
As for `O=C(CSc1nc(-c2ccc(F)cc2)nc2ccc(F)cc12)Nc1cccc(C(=O)O)c1`, the AC50 under setting [1] was 3.26 µM [rising, single point].
As for `COc1ccccc1CC(=O)NCCCc1ccccc1`, the cell number change is -13.5%. Further, under setting [1], the AC50 is 9.2 µM [rising, partial curve].
Regarding `O=C(Nc1ccc2c(c1)nc1n2CCOC1)C1CCCCC1`, the cell number change is -2.23%. For the same compound, the AC50 under setting [1] was 1.64 µM [rising, partial curve, poor fit].
`Cc1cc(/C=N/NC(=O)c2c(Br)cnn2C)c(C)n1-c1cccc(Br)c1`: the cell number change was 32.7%. In addition, the AC50 under setting [2] is 14.6 µM [rising, partial curve]. The concentration at half-maximal activity (AC50) under setting [1] was 18.4 µM [rising, partial curve].
Consider `C=CCn1cc(-c2cccc(Cl)c2)cc(C#N)c1=O`, for which the cell number change is -3.97%. Further, under setting [1], the AC50 is 6.51 µM [rising, single point].
`CC1CCN(CCCCOc2ccc(F)cc2)CC1`: the cell number change was found to be 23.7%.
In the case of `COc1cccc2sc(Nc3nc(-c4ccncc4)cs3)nc12`, the cell number change was -30.6%. Further, the concentration at half-maximal activity (AC50) under setting [1] was 0.731 µM [falling, partial curve, poor fit].
